Test results from PubChem BioAssay AID1487 (National Center for Advancing Translational Sciences (NCATS), 2009).
This is one part of the list. The main result of the screen is listed elsewhere. These columns were measured beside it and carry no call. Compounds called inactive in the main read-out are mostly missing here. Potencies come from curve fits of mixed quality, noted in brackets.

Experiment: qHTS Assay for Modulators of Lamin A Splicing
Conditions: HeLa LMNA splicing GFP/RFP minigene ratio, 48 h
Method in brief: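 Read-out is the ratio of GFP to DsRed2 object intensity, acquired by 488 nm laser-scanning cytometry on HeLa lamin A-EGFP minigene reporter cells. Compound incubation 48 hrs at 37 °C in Opti-MEM with 2% FBS; DMSO 0.5% final.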

[1] = measured here: GFP splicing reporter channel
[2] = measured here: RFP viability control channel

| SMILES | AC50 [1] | AC50 [2] |
| --- | --- | --- |
| Cc1ccc(NC(=O)c2ccccc2OCC(=O)Nc2cccc(Cl)c2C)nc1 | 35.5 µM [falling, single point] |  |
| Fc1ccccc1/C=C1\CCCC2=C1Nc1nnnn1C2c1ccccc1F (stereo not drawn) | 17.8 µM [falling, single point] | 22.4 µM [falling, single point] |
| CCC(=O)NC(/C=C/c1ccccc1)c1cc([N+](=O)[O-])c2cccnc2c1O (stereo not drawn) |  | 2.51 µM [rising, full curve] |
| Cc1ccc(/C=N\NC(=O)Cn2c(C)nc3ccccc32)o1 | 10 µM [rising, partial curve] | 11.2 µM [rising, partial curve] |
| Cc1ccc(NC(=O)c2ccc(Cl)c(N3C(=O)C=CC3=O)c2)cc1 | 12.6 µM [falling, single point] | 0.891 µM [falling, single point] |
| CCN(CC)CCNC(=O)c1ccc(NC(=O)c2cn(-c3ccccc3)nc2-c2cccs2)cc1 | 22.4 µM [falling, single point] | 35.5 µM [falling, single point] |
| COc1cccc(-c2csc(N3CCN(C(=O)C4CCCCC4)CC3)n2)c1 |  | 12.6 µM [rising, single point] |
| O=S(=O)(c1ccc2c(c1)C(=NO)c1cc(S(=O)(=O)N3CCCCC3)ccc1-2)N1CCCCC1 | 0.891 µM [falling, full curve] | 0.891 µM [falling, full curve] |
| CCOc1ccc(NC(=O)c2cnn3c2NC(c2ccccc2)=CC3c2cccc(OC)c2OC)cc1 (stereo not drawn) | 1.41 µM [rising, full curve, poor fit] | 1.41 µM [rising, full curve] |
| Cc1ccc(C(=O)c2cc([N+](=O)[O-])ccc2N2CCOCC2)cc1C |  | 3.55 µM [rising, partial curve] |
| O=C(Nc1nc(-c2ccc3c(c2)OCCO3)cs1)c1ccc(S(=O)(=O)N2CCCCC2)cc1 | 8.91 µM [rising, partial curve] | 6.31 µM [rising, full curve] |
| COc1cccc(C(=O)NN/C(C)=C/C(=O)C(F)(F)C(F)(F)C(F)(F)F)c1 |  | 11.2 µM [rising, partial curve, poor fit] |
| CN(C)c1ccc(-c2cncnc2NCCc2cnc[nH]2)cc1 | 10 µM [falling, partial curve] | 2.82 µM [falling, full curve, poor fit] |
| Cc1ccc(C(=O)N2CCc3cc(CNC(=O)c4ccccc4F)ccc32)cc1 | 0.0224 µM [falling, full curve, poor fit] | 7.94 µM [falling, full curve, poor fit] |

One compound at a time, from the list above.
`O=C(Nc1nc(-c2ccc3c(c2)OCCO3)cs1)c1ccc(S(=O)(=O)N2CCCCC2)cc1` reads AC50 [1]: 8.91 µM [rising, partial curve]; AC50 [2]: 6.31 µM [rising, full curve]
`Fc1ccccc1/C=C1\CCCC2=C1Nc1nnnn1C2c1ccccc1F` (stereo not drawn) reads AC50 [1]: 17.8 µM [falling, single point]; AC50 [2]: 22.4 µM [falling, single point]
